Assay results: patent US6310072A (priority 1995, dated 2001)

System: Dark Agouti rats
Parameters: species or system rat (Dark Agouti)
Conditions: rat, in vivo, sc

CN1CC[C@]23c4c5ccc(O)c4O[C@H]2[C@@H](O)C=C[C@H]3[C@H]1C5 [morphine]
Time to maximum antinociception (Tmax): 45 min
